Source: the supplement of paper PMC8728848
Some of the results follow.

How the values were obtained:
Assay in all cases: glycan array binding signal (z-score within array); higher = stronger binding
Settings in all cases: glycan notation: IUPAC condensed, linker removed
GalNAc(b1-4)Gal(b1-4)Glc = target: GalNAc(b1-4)Gal(b1-4)Glc
Outline: (§1)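 Columns mapping to the same glycan were averaged after glycan names were converted to IUPAC-condensed notation. The data come from 3228 arrays in the Consortium for Functional Glycomics database, limited to those with an available protein sequence. Binding is reported as a within-array Z-score averaged across arrays of one protein sequence and across linkers.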

GalNAc(b1-4)GlcNAc = target: GalNAc(b1-4)GlcNAc
Outline: as §1

[1] = target: GalNAc(b1-4)GlcNAc(b1-2)Man
Outline: as §1

[2] = target: GalNAc(b1-4)GlcNAc(b1-2)Man(a1-3)[GalNAc(b1-4)GlcNAc(b1-2)Man(a1-6)]Man(b1-4)GlcNAc(b1-4)GlcNAc
Outline: as §1

[3] = target: GalNAc(b1-4)GlcNAc(b1-3)GalNAc(b1-4)GlcNAc
Outline: as §1

GalNAc(b1-4)GlcNAc6S = target: GalNAc(b1-4)GlcNAc6S
Outline: as §1

GalNAc(b1-6)GalNAc = target: GalNAc(b1-6)GalNAc
Outline: as §1

GalNAc3S(b1-4)GlcNAc = target: GalNAc3S(b1-4)GlcNAc
Outline: as §1

GalNAc3S(b1-4)GlcNAc3S = target: GalNAc3S(b1-4)GlcNAc3S
Outline: as §1

[4] = target: GalNAc3S(b1-4)[Fuc(a1-3)]GlcNAc
Outline: as §1

GalNAc4S6S(b1-4)GlcNAc = target: GalNAc4S6S(b1-4)GlcNAc
Outline: as §1

GalNAc6S(b1-4)GlcNAc = target: GalNAc6S(b1-4)GlcNAc
Outline: as §1

Glc(a1-4)Glc = target: Glc(a1-4)Glc
Outline: as §1

[5] = target: Glc(a1-4)Glc(a1-4)Glc(a1-4)Glc
Outline: as §1

Glc(a1-6)Glc(a1-6)Glc = target: Glc(a1-6)Glc(a1-6)Glc
Outline: as §1

[6] = target: Glc(a1-6)Glc(a1-6)Glc(a1-6)Glc
Outline: as §1

Glc(b1-4)Glc = target: Glc(b1-4)Glc
Outline: as §1

Glc(b1-6)Glc = target: Glc(b1-6)Glc
Outline: as §1

GlcA(b1-3)Gal = target: GlcA(b1-3)Gal
Outline: as §1

GlcA(b1-3)GlcNAc = target: GlcA(b1-3)GlcNAc
Outline: as §1

GlcA(b1-6)Gal = target: GlcA(b1-6)Gal
Outline: as §1

[7] = target: GlcA3S(b1-3)Gal(b1-4)GlcNAc(b1-2)Man
Outline: as §1

[8] = target: GlcA3S(b1-3)Gal(b1-4)GlcNAc(b1-3)Gal(b1-4)Glc
Outline: as §1

[9] = target: GlcNAc(a1-3)Gal(b1-4)GlcNAc
Outline: as §1

[10] = target: GlcNAc(a1-4)Gal(b1-3)GlcNAc
Outline: as §1

[11] = target: GlcNAc(a1-4)Gal(b1-4)GalNAc
Outline: as §1

[12] = target: GlcNAc(a1-4)Gal(b1-4)GlcNAc
Outline: as §1

[13] = target: GlcNAc(a1-4)Gal(b1-4)GlcNAc(b1-3)Gal(b1-4)Glc
Outline: as §1

[14] = target: GlcNAc(a1-4)Gal(b1-4)GlcNAc(b1-3)Gal(b1-4)GlcNAc
Outline: as §1

[15] = target: GlcNAc(a1-4)Gal(b1-4)GlcNAc(b1-3)Gal(b1-4)GlcNAc(b1-3)Gal(b1-4)GlcNAc
Outline: as §1

[16] = target: GlcNAc(a1-4)Gal(b1-4)GlcNAc(b1-3)Gal(b1-4)[Fuc(a1-3)]GlcNAc(b1-3)Gal(b1-4)[Fuc(a1-3)]GlcNAc
Outline: as §1

[17] = target: GlcNAc(a1-6)Gal(b1-4)GlcNAc
Outline: as §1

[18] = target: GlcNAc(b1-2)Gal(b1-3)GalNAc
Outline: as §1

[19] = target: GlcNAc(b1-2)Man(a1-3)[GlcNAc(b1-2)Man(a1-6)]Man(b1-4)GlcNAc(b1-4)GlcNAc
Outline: as §1

[20] = target: GlcNAc(b1-2)Man(a1-3)[GlcNAc(b1-2)Man(a1-6)]Man(b1-4)GlcNAc(b1-4)[Fuc(a1-6)]GlcNAc
Outline: as §1

[21] = target: GlcNAc(b1-2)Man(a1-3)[GlcNAc(b1-4)][GlcNAc(b1-2)Man(a1-6)]Man(b1-4)GlcNAc(b1-4)GlcNAc
Outline: as §1

[22] = target: GlcNAc(b1-2)Man(a1-3)[GlcNAc(b1-4)][GlcNAc(b1-2)Man(a1-6)]Man(b1-4)GlcNAc(b1-4)[Fuc(a1-6)]GlcNAc
Outline: as §1

B1: GST-Gap1 (Streptococcus parasanguinis), A1C3L5 (protein)
chain: MFYFVPSWYNGQRQWYYDTPWWFRVKNRMTFDDSVNQVKMFLQGQEEIGLMILNYQPQLRYFLHKQNIFGIYYWSFFDDIQNITRSYTKIIHLKDLNWPEGCEFLYSPFAVVVRLKGEIFAIVNYAEDGNLHSVSFQKNGKVTKDYIFDDRGFLSSILYYDIDERPLYQDYLNINGVWQVREFLKKENDPTPILMINDFSDQTFSKKYYNGWEELIKERLAIFQNNHVENEDVFVLASDTQHNQLVSSIFKEHRKIYSFFGNRFNLENLGQDRISINDATFLVVDTEKNEELLRKTCENLVFKSIPIVRLSPFDSRLRLGHSQTVKEQIIYFHIDNIELDELYSVIAIILELMTLHLDIELRIVTFRQDFQLDLLKTWIIDFIKTNHFEDLLFKQISEGENEIEDEGEIELSRIAMECFTNENQIIKCLDTARLVIDLGIEPDLYTQIASISAGIPQINRVSSDYVIHQKNGLVISDISKLSSAIEFYFDGLFNWNEALIYAVRKMSDYTSGKILKQWKGMLKKK
glycan array binding signal (z-score) (GalNAc(b1-4)Gal(b1-4)Glc): -0.47
glycan array binding signal (z-score) (GalNAc(b1-4)GlcNAc): -0.452
glycan array binding signal (z-score) [1]: -1.49
glycan array binding signal (z-score) [2]: 0.064
glycan array binding signal (z-score) [3]: 0.073
glycan array binding signal (z-score) (GalNAc(b1-4)GlcNAc6S): -0.018
glycan array binding signal (z-score) (GalNAc(b1-6)GalNAc): -0.113
glycan array binding signal (z-score) (GalNAc3S(b1-4)GlcNAc): -0.643
glycan array binding signal (z-score) (GalNAc3S(b1-4)GlcNAc3S): -0.242
glycan array binding signal (z-score) [4]: -1.08
glycan array binding signal (z-score) (GalNAc4S6S(b1-4)GlcNAc): -0.515
glycan array binding signal (z-score) (GalNAc6S(b1-4)GlcNAc): -0.204
glycan array binding signal (z-score) (Glc(a1-4)Glc): -0.016
glycan array binding signal (z-score) [5]: -0.696
glycan array binding signal (z-score) (Glc(a1-6)Glc(a1-6)Glc): -0.544
glycan array binding signal (z-score) [6]: 0.133
glycan array binding signal (z-score) (Glc(b1-4)Glc): 0.202
glycan array binding signal (z-score) (Glc(b1-6)Glc): -0.956
glycan array binding signal (z-score) (GlcA(b1-3)Gal): 0.519
glycan array binding signal (z-score) (GlcA(b1-3)GlcNAc): 5.69
glycan array binding signal (z-score) (GlcA(b1-6)Gal): -0.482
glycan array binding signal (z-score) [7]: 0.188
glycan array binding signal (z-score) [8]: -0.819
glycan array binding signal (z-score) [9]: -0.787
glycan array binding signal (z-score) [10]: 0.048
glycan array binding signal (z-score) [11]: -0.386
glycan array binding signal (z-score) [12]: -0.205
glycan array binding signal (z-score) [13]: -0.146
glycan array binding signal (z-score) [14]: 0.102
glycan array binding signal (z-score) [15]: 0.023
glycan array binding signal (z-score) [16]: 1.06
glycan array binding signal (z-score) [17]: -0.378
glycan array binding signal (z-score) [18]: 1.1
glycan array binding signal (z-score) [19]: -0.043
glycan array binding signal (z-score) [20]: -0.297
glycan array binding signal (z-score) [21]: -0.492
glycan array binding signal (z-score) [22]: -0.195
